# Test results reported in doi:10.1101/258731.
# By UniProt entry, the sequences of proteins in these tests, tags left out.
# UniProt P15307: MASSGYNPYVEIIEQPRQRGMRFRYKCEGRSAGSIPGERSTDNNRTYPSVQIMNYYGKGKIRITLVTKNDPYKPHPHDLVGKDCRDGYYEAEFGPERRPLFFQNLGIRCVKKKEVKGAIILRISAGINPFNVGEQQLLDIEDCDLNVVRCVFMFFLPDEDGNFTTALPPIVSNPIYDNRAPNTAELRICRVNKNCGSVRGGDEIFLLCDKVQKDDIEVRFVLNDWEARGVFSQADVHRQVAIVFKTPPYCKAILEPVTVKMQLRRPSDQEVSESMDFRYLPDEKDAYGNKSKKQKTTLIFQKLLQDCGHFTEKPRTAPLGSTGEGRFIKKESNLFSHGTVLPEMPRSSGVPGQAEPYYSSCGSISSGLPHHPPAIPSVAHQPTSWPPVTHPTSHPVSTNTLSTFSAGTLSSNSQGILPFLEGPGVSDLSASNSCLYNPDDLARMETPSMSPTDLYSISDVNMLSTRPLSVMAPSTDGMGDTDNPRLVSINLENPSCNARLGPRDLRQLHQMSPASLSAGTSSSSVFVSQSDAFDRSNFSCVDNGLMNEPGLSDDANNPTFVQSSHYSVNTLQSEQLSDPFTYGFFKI
# UniProt P53996: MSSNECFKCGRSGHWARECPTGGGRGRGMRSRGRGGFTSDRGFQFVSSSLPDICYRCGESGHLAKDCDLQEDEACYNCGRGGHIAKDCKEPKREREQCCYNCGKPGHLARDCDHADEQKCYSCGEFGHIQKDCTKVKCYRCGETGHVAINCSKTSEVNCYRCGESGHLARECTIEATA
# Results are given in words; binding and its absence hold for the method and conditions named. Binding seen in cells or lysates may run through a third protein. Some binding calls cover weakened binding; strength is not graded here.
# Target: c-Rel (mouse (endogenous in BMDMs)) (UniProt P15307)
# Test: co-IP
substance,measurement,value
Cellular nucleic acid binding protein (Cnbp) (from UniProt P53996 1-178),binding,binds
